Results taken from article PMC10019453, “Integrative structural analysis of the type III secretion system needle complex from Shigella flexneri” (Protein Science : A Publication of the Protein Society, 2023).

Amino acid sequences for entries named in this document (tags omitted).
UniProt P0A223: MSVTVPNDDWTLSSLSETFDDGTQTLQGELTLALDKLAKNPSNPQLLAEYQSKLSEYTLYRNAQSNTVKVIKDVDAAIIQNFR

Molecular target: N-terminal Strep-tagged MxiH[SctF] (Shigella flexneri) (UniProt P0A223)
Assay: affinity purification with mass spectrometry; needle complexes solubilised from the membrane pellet (50 mM HEPES, 100 mM NaCl, 5 mM EDTA, 0.04% Triton X-100 pH 8.00) and purified by the Strep-tag on MxiH; proteins found by mass spectrometry

B1: MxiM[SctG] (natural protein)
chain: CALKSSSNSEKEWHIVPVSKDYFSIPNDLLWSFNTTNKSINVYSKCISGKAVYSFNAGKFMGNFNVKEVDGCFMDAQKIAIDKLFSMLKDGVVLKGNKINDTILIEKDGEVKLKLIRGI
modifications: lipidated N-terminus
notes: MxiM[SctG], pilotin of the Shigella flexneri T3SS; also called pilotin; pilot protein
binding: binds

These are yes or no findings as the source states them, for the method shown. In cells and extracts the contact can be indirect. A yes stands for co-enrichment or nearness to the bait. Other partners may have been found.
